The supplement of paper PMC11732987, “Enantioselective OTUD7B fragment discovery through chemoproteomics screening and high-throughput optimisation” (Communications Chemistry, 2025)
This is one part of the list. The data scatter; read single values as rough.

Chains of the proteins cited; added tags and fusions are not shown. Lines headed by an entry give the natural chain unless they say otherwise; changes in a name come on top. Residues count along the entry.
UniProt Q86X02: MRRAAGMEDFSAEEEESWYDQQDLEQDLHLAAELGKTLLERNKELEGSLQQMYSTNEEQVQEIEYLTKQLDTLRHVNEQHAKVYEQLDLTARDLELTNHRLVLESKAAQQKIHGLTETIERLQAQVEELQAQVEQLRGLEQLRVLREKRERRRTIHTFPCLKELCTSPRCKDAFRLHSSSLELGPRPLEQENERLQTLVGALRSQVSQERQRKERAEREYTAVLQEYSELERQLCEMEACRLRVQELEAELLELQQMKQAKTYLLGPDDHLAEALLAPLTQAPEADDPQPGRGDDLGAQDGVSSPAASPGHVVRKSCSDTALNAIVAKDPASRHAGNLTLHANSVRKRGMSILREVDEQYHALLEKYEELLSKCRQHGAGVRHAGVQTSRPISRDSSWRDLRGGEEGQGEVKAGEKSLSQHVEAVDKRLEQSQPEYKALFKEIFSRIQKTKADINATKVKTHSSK
UniProt Q01850: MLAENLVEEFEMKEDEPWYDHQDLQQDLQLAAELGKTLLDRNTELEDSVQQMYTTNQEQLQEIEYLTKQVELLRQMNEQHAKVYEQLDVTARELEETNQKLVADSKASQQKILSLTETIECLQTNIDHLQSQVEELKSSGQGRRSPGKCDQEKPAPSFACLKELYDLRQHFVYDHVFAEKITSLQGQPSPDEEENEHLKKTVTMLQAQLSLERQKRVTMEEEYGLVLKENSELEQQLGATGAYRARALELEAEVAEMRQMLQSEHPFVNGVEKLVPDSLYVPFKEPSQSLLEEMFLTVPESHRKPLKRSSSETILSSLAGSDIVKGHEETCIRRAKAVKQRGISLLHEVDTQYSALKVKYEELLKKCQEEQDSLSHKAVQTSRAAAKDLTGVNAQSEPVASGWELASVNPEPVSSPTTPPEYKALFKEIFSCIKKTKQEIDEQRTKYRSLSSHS
UniProt Q9P219: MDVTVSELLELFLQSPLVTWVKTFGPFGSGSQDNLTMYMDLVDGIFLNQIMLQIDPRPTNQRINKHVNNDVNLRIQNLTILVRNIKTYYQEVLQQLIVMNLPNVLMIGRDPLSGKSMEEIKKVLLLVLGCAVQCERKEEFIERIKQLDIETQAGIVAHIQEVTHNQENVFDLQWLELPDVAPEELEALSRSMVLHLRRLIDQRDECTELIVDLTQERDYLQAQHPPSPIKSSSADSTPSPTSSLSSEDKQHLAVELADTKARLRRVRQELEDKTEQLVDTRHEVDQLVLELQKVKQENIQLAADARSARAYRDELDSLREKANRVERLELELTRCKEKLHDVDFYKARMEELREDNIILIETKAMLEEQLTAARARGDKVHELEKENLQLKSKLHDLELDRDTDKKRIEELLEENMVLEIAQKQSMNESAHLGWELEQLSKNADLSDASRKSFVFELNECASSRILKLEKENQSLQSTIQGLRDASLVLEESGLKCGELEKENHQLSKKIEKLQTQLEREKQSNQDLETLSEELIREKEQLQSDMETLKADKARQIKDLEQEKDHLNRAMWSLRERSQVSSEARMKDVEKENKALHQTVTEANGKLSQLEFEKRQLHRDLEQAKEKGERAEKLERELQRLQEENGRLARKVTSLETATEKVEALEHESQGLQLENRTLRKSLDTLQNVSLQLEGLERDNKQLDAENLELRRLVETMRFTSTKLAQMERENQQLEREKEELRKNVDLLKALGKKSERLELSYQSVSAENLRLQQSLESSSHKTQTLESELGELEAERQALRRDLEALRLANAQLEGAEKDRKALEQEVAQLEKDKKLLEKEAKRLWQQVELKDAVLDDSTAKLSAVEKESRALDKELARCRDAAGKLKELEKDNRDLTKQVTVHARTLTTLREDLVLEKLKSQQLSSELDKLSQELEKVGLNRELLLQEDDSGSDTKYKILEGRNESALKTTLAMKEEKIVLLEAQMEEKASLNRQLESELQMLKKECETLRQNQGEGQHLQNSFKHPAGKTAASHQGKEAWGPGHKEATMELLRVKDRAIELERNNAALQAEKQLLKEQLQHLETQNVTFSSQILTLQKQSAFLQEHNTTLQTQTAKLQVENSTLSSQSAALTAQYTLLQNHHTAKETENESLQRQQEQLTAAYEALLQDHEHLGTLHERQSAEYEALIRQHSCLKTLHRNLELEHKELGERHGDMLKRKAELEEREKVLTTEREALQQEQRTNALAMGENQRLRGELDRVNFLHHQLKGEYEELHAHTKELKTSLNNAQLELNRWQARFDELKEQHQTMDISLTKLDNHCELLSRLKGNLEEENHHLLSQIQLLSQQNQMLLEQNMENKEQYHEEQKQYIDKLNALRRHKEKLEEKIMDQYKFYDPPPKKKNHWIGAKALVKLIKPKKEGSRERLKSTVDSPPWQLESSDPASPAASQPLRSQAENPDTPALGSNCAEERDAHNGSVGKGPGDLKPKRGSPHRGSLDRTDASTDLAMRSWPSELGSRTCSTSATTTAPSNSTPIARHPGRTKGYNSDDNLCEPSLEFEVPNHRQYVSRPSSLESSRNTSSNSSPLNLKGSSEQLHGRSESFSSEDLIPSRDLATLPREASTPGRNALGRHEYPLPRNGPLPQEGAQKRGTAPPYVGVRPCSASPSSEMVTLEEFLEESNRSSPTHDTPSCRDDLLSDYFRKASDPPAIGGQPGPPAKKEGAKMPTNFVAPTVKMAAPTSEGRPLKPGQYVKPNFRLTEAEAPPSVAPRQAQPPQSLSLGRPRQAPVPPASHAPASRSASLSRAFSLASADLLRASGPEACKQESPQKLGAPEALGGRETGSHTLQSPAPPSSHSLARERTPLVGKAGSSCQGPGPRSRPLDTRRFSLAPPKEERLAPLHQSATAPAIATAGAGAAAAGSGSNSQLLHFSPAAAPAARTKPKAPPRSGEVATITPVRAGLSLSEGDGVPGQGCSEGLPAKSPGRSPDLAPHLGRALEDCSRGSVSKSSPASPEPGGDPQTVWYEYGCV
UniProt Q5T9S5: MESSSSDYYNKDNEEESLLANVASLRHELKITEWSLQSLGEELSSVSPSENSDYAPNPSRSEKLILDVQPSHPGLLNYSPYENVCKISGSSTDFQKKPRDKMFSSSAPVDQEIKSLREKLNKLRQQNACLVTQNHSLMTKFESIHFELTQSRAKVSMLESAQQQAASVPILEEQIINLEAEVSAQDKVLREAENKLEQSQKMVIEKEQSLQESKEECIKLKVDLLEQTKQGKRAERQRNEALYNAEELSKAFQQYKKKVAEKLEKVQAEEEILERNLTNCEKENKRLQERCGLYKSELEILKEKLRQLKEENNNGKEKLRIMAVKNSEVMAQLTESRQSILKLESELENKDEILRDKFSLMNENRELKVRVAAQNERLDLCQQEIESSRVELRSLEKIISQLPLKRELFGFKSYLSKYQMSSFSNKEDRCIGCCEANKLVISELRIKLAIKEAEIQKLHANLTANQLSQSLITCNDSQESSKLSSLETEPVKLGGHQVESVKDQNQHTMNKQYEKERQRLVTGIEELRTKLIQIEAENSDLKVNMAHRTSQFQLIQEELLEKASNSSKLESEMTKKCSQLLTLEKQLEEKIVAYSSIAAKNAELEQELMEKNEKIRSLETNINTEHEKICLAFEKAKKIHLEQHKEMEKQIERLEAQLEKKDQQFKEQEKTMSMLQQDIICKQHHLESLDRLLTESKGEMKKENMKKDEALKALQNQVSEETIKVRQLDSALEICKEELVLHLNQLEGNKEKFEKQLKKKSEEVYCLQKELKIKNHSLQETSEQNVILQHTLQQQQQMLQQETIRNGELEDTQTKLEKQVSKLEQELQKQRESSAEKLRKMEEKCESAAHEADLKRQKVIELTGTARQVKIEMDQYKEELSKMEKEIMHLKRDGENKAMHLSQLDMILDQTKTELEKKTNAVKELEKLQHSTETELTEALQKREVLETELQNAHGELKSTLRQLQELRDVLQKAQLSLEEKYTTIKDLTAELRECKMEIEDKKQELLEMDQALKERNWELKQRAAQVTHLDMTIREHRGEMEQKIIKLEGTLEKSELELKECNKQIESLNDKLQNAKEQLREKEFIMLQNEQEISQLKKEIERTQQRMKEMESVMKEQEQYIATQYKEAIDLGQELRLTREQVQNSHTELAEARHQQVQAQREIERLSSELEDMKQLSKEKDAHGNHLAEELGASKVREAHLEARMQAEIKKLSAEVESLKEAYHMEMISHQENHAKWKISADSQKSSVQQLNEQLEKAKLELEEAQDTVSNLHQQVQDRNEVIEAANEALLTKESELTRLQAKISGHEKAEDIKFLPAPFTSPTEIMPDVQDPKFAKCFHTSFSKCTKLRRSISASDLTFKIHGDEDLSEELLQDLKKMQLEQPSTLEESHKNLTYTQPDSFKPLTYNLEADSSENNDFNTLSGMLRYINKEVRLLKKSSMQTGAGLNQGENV
UniProt Q7Z6B0: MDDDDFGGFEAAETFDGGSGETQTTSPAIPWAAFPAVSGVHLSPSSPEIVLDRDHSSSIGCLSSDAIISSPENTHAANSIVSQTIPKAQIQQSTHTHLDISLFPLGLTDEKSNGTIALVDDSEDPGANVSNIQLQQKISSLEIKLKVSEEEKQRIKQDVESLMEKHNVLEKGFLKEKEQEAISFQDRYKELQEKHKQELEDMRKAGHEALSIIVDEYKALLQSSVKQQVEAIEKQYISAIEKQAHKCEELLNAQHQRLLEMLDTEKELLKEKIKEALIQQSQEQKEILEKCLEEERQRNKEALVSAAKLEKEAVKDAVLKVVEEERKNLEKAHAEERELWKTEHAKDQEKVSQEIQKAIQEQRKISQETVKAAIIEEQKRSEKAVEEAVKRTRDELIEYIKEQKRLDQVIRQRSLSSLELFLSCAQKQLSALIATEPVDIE
UniProt Q9UQ88: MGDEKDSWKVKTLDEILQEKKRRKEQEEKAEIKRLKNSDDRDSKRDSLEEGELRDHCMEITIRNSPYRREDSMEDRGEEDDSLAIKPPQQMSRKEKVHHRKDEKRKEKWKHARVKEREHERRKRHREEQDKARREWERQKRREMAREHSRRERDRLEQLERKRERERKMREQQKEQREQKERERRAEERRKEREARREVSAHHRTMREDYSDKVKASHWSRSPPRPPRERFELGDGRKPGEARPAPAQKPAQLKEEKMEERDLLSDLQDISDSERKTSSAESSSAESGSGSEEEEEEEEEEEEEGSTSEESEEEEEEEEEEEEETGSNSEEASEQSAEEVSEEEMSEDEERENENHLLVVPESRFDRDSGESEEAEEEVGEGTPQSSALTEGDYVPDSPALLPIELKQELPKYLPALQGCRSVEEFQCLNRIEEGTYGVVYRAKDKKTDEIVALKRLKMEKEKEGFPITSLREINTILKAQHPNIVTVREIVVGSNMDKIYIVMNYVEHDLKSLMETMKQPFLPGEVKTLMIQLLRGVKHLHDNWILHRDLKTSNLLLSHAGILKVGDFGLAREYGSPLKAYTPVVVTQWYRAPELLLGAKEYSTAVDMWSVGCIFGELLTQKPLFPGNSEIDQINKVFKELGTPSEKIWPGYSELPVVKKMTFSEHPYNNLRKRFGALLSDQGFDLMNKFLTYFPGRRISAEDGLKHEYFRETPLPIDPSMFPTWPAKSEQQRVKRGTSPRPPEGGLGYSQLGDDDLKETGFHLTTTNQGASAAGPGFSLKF
UniProt O60563: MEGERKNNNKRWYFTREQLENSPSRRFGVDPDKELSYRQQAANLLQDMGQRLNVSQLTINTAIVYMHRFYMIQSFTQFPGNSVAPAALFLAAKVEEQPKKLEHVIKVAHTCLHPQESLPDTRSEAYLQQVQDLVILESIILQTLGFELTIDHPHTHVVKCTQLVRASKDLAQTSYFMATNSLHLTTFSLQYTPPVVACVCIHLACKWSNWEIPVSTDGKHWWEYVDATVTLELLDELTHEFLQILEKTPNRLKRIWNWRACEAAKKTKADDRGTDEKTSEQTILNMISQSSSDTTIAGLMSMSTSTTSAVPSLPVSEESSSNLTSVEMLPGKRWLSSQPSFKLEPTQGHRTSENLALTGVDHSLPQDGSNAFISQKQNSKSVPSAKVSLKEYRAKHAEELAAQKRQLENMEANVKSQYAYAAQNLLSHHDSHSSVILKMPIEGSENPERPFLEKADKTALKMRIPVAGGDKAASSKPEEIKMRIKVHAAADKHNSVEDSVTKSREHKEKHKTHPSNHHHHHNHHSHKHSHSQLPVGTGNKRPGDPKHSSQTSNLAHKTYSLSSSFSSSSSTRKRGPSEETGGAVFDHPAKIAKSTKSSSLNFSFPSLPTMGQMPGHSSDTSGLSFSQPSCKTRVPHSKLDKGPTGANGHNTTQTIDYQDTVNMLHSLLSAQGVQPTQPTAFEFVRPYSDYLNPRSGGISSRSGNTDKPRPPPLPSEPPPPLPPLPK
UniProt Q9C0F1, 349-368: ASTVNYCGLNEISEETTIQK
UniProt Q9P031, 110-152: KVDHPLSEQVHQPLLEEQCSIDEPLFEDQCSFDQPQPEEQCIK
UniProt Q9NSP4: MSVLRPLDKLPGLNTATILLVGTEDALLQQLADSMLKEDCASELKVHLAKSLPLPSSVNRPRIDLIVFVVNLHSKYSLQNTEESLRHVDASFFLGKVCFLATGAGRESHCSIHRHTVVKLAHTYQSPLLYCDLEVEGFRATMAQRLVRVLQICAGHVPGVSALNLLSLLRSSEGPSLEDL

The targets below were run with ClCC(=O)N[C@@H]1CCCc2ccccc12 (assay: log2 mean competition ratio of IA-DTB cysteine labelling (DMSO/compound) (log2 ratio); higher = stronger cysteine engagement by compound). Conditions: 50 µM; treatment time: 4 h; cell line lysate: HEK293T.
Description: (§1)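 IA-DTB competitive cysteine chemoproteomics in HEK293T RIPA lysate. Lysates were treated with compound 29 or 30 at 50 or 200 µM for 4 h, then IA-DTB (500 µM, 1 h), trypsin-digested, NeutrAvidin-enriched and analysed by diaPASEF. Competition ratio = intensity DMSO / intensity compound (n=4 treated, n=64 DMSO); binding: mean log2 CR ≥ 1 and p ≤ 0.05 plus QC filters. Target is the cysteine site.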

Row | Target | log2 mean competition ratio
1 | CEP152 C101 (UniProt O94986) | 0.0133
2 | CDR2L C317 (UniProt Q86X02) | 0.0524
3 | CDR2 C331 (UniProt Q01850) | -0.0689
4 | CCDC88C C1871 (UniProt Q9P219) | -0.106
5 | CCDC77 C455 | -0.0657
6 | CEP350 C1557 (UniProt Q5VT06) | -0.234
7 | CEP152 C818 (UniProt O94986) | -0.25
8 | CCDC18 C681 (UniProt Q5T9S5) | -0.00293
9 | CCDC91 C247 (UniProt Q7Z6B0) | -0.134
10 | CDK11A C428 (UniProt Q9UQ88) | 0.165
11 | CCNT1 C111 (UniProt O60563) | 0.272
12 | CENPF C2464 (UniProt P49454) | -0.123

Same assay, conditions: 200 µM; treatment time: 4 h; cell line lysate: HEK293T

Row | Target | log2 mean competition ratio
13 | CHD1 C411 (UniProt O14646) | 0.0232
14 | CEP44 C28 (UniProt Q9C0F1) | -0.0545
15 | CCDC59_(C128,C128,C139,C139,C150,C150) (UniProt Q9P031) | 0.0174
16 | CCDC74A;CCDC74B C241;(C241) | -0.0317
17 | CFAP97 C27 (UniProt Q9P2B7) | 0.322
18 | CCT4 C450 (UniProt P50991) | -0.132
19 | CCT7 C345 (UniProt Q99832) | -0.0101
20 | CENPF C1233 (UniProt P49454) | 0.397
21 | CDK17 C233 (UniProt Q00537) | 0.0299
22 | CCT2 C535 (UniProt P78371) | -0.175
23 | CEP170B C141 (UniProt Q9Y4F5) | -0.0449
24 | CHAMP1 C194 (UniProt Q96JM3) | -0.0857
25 | CENPM C98 (UniProt Q9NSP4) | -0.347
26 | CEP44 C355 (UniProt Q9C0F1) | 0.349
27 | CEP350 C966 (UniProt Q5VT06) | 1.35
28 | CENPF C722 (UniProt P49454) | -0.192
29 | CERS5 C369 (UniProt Q8N5B7) | 0.443
30 | CHD3 C1838 (UniProt Q12873) | 0.135
31 | CCDC85C C389 (UniProt A6NKD9) | 0.43

Row | Target | log2 mean competition ratio
32 | CDC25C C330 (UniProt P30307) | -0.439
33 | CCP110 C436 (UniProt O43303) | 0.277
34 | CEP97 C94 (UniProt Q8IW35) | 0.378
35 | CCT5 C493 (UniProt P48643) | -0.0168
36 | CCDC138 C193 (UniProt Q96M89) | -0.0104
37 | CC2D1A C310 (UniProt Q6P1N0) | -0.0481
38 | CEP152 C101 (UniProt O94986) | 0.0571
39 | CDR2L C317 (UniProt Q86X02) | -0.0915
40 | CDR2 C331 (UniProt Q01850) | -0.0174
41 | CCDC88C C1871 (UniProt Q9P219) | 0.219
42 | CCDC77 C455 | -0.0643
43 | CEP350 C1557 (UniProt Q5VT06) | 0.105
44 | CEP152 C818 (UniProt O94986) | -0.207
45 | CCDC18 C681 (UniProt Q5T9S5) | 0.0282
46 | CCDC91 C247 (UniProt Q7Z6B0) | 0.191
47 | CDK11A C428 (UniProt Q9UQ88) | -0.0142
48 | CCNT1 C111 (UniProt O60563) | -0.286
49 | CENPF C2464 (UniProt P49454) | 0.23

Each target was assayed with ClCC(=O)N[C@H]1CCCc2ccccc12 in the same assay as above. Conditions: 50 µM; treatment time: 4 h; cell line lysate: HEK293T.
Description: as §1

Row | Target | log2 mean competition ratio
50 | CHD1 C411 (UniProt O14646) | 0.371
51 | CEP44 C28 (UniProt Q9C0F1) | -0.122
52 | CCDC74A;CCDC74B C241;(C241) | 0.164
53 | CCT4 C450 (UniProt P50991) | 0.342
54 | CCT7 C345 (UniProt Q99832) | 0.492
55 | CENPF C1233 (UniProt P49454) | -0.679
56 | CDK17 C233 (UniProt Q00537) | -0.327
57 | CCT2 C535 (UniProt P78371) | -0.0309
58 | CEP170B C141 (UniProt Q9Y4F5) | 0.00575
59 | CHAMP1 C194 (UniProt Q96JM3) | 0.0598
60 | CEP44 C355 (UniProt Q9C0F1) | 0.0342
61 | CEP350 C966 (UniProt Q5VT06) | -0.439
62 | CENPF C722 (UniProt P49454) | 0.174
63 | CERS5 C369 (UniProt Q8N5B7) | -0.361
64 | CHD3 C1838 (UniProt Q12873) | -0.348
65 | CCP110 C436 (UniProt O43303) | -0.35

Row | Target | log2 mean competition ratio
66 | CEP97 C94 (UniProt Q8IW35) | -0.122
67 | CCT5 C493 (UniProt P48643) | 0.279
68 | CCDC138 C193 (UniProt Q96M89) | 0.164
69 | CC2D1A C310 (UniProt Q6P1N0) | -0.16
70 | CDR2L C317 (UniProt Q86X02) | -0.383
71 | CDR2 C331 (UniProt Q01850) | 0.18
72 | CCDC88C C1871 (UniProt Q9P219) | 0.291
73 | CCDC77 C455 | -0.349
74 | CEP350 C1557 (UniProt Q5VT06) | 0.0901
75 | CEP152 C818 (UniProt O94986) | -0.153
76 | CCDC18 C681 (UniProt Q5T9S5) | -0.205
77 | CCDC91 C247 (UniProt Q7Z6B0) | -0.511
78 | CDK11A C428 (UniProt Q9UQ88) | 0.369
79 | CCNT1 C111 (UniProt O60563) | 0.444
80 | CENPF C2464 (UniProt P49454) | -0.205
